Results: PubChem BioAssay AID2685 (National Center for Advancing Translational Sciences (NCATS), 2010)
This is one part of the list. These are further read-outs of the screen, such as a control signal, another cell line or another target. No call is given for them. Most of these compounds were active or inconclusive in the main read-out, so they are no random draw. Potencies come from curve fits of mixed quality, noted in brackets.

Assay: qHTS Assay for Lipid Storage Modulators in Drosophila S3 Cells;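 for cell number change: cells counted by Cell Tracker Red CMTPX staining in the red channel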
Conditions: BODIPY lipid droplet fluorescence, 18-24 h; for cell number change: measured here: cell count max response, cells fed with added oleic acid
How it was run: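 Laser-scanning cytometry quantifies lipid droplet accumulation (500–530 nm total intensity; droplet/cell object ratio) in oleic acid-fed (400 uM added) Drosophila S3 cells treated with a concentration series. 20 uM Triacsin C defined 100% inhibition.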

[1] = measured here: lipid fluorescence (Fed channel) AC50, cells fed with added oleic acid
[2] = measured here: cell number channel AC50, cells fed with added oleic acid

Row | Compound | cell number change | AC50 [1] | AC50 [2]
1 | O=C(CN1CCN(S(=O)(=O)c2ccccc2)CC1)Nc1ccc(N2CCOCC2)cc1 | 17.2% | 11.6 µM [rising, partial curve, poor fit] | –
2 | Cc1ccc(Cl)cc1NC(=S)N(Cc1cccnc1)Cc1ccccc1Cl | 54.5% | – | 29.1 µM [rising, single point]
3 | FC(F)(F)c1cc(-c2ccccc2)nc(NCC2CCCO2)n1 (centres undefined) | -48.3% | 29.1 µM [falling, partial curve, poor fit] | 8.2 µM [falling, partial curve, poor fit]
4 | Cc1cccc(C)c1OCC(=O)NNC(=O)Nc1ccc(Cl)cc1 | – | 0.58 µM [falling, single point] | –
5 | CCN(CC)S(=O)(=O)c1ccc(Cl)c(NC(=O)COc2ccc(OC)cc2[N+](=O)[O-])c1 | -3.66% | – | –
6 | CN(C)C(=O)c1ccc(-n2cccn2)nc1 | – | 3.66 µM [rising, partial curve] | –
7 | O=C(NC1CCCCC1)C(c1ccco1)N(Cc1cccnc1)C(=O)C1COc2ccccc2O1 (centres undefined) | – | – | 2.06 µM [rising, partial curve]
8 | CC1(C)CC(=O)C(CC2=C(O)CC(C)(C)CC2=O)C(=O)C1 | 11.9% | – | 0.082 µM [rising, full curve]
9 | COc1cnn(-c2cccc(C)c2)c(=O)c1Cl | -0.985% | 0.651 µM [rising, single point] | –
10 | COc1ccc(C)cc1NC(=O)CSc1nnc2ccc(-c3ccncc3)nn12 | – | – | 0.0461 µM [rising, full curve, poor fit]
11 | Cc1ccccc1NS(=O)(=O)c1cc(C(=O)NCCSC2CCCCC2)ccc1C | -15.1% | 16.4 µM [falling, single point] | –
12 | c1ccc(CSc2nnnn2-c2cccc3ccccc23)nc1 | 17.7% | 1.46 µM [rising, partial curve] | –
13 | COc1ccccc1C(=O)Nc1cccc(-c2cn3ccsc3n2)c1 | – | 0.00461 µM [rising, full curve, poor fit] | –
14 | CCOc1cc(CNC(C)C)c(Cl)cc1OCC(=O)NCCc1ccccc1 | – | 6.51 µM [rising, single point] | –
15 | COc1ccc(-n2c(C)cc(C(=O)COC(=O)Cc3n[nH]c(=O)c4ccccc34)c2C)cc1 | -37.3% | 20.6 µM [falling, partial curve, poor fit] | 16.4 µM [falling, single point]
16 | Cn1c(=O)c2c(ncn2CC(=O)NCc2cccnc2)n(C)c1=O | -0.707% | – | –
17 | COc1cc(NC(=O)c2cccs2)c(C(=O)OCC(=O)c2cc(C)n(-c3ccccc3)c2C)cc1OC | 16.2% | 0.517 µM [rising, single point] | –
18 | Cc1occc1C(=O)N/N=C/c1cccc2ccccc12 | -2.86% | 6.51 µM [rising, single point] | –
19 | O=C(COc1ccccc1)N=C1SC2CS(=O)(=O)CC2N1c1ccccc1F (centres undefined) | 5.37% | 6.51 µM [falling, single point] | –

Looked up one by one from the list above (2):
Row | Compound | cell number change | AC50 [1] | AC50 [2]
13 | COc1ccccc1C(=O)Nc1cccc(-c2cn3ccsc3n2)c1 | – | 0.00461 µM [rising, full curve, poor fit] | –
18 | Cc1occc1C(=O)N/N=C/c1cccc2ccccc12 | -2.86% | 6.51 µM [rising, single point] | –

Additional structures follow.

Row | Compound | cell number change | AC50 [1] | AC50 [2]
20 | CC1CCN(CCOCCOc2ccccc2Br)CC1 | -4.93% | 0.501 µM [falling, full curve, poor fit] | –
21 | CC(=O)Nc1cccc(C(=O)OC(C)C(=O)Nc2ccc(S(=O)(=O)N3CCCC3)cc2)c1 (centres undefined) | -20% | – | –
22 | Fc1ccc(-n2c(Cn3nnc4ccccc43)n[nH]c2=S)cc1 | – | 0.00411 µM [falling, full curve, poor fit] | –
23 | CCOC(=O)/C=C/[C@H]1CCc2cccc(C)c2O1 | -33.4% | 0.231 µM [falling, partial curve, poor fit] | 0.164 µM [falling, full curve, poor fit]
24 | Cc1cccc(Cl)c1NC(=S)NN | 6.81% | 6.51 µM [rising, single point] | 6.51 µM [rising, single point]
25 | Cc1sc(NC(=O)c2cccc(N3C(=O)CCC3=O)c2)nc1-c1ccccc1 | 34.6% | 2.91 µM [rising, full curve] | 1.84 µM [rising, partial curve, poor fit]
26 | O=C(NCCCN1CCCC1=O)c1ccc(NS(=O)(=O)c2ccccc2)cc1 | -14.7% | – | 0.13 µM [falling, full curve, poor fit]
27 | CCn1c(SCC(=O)Nc2cc(OC)ccc2OC)nc2c(c1=O)SCC2 | 19.9% | – | 0.146 µM [rising, single point]
28 | CCOc1ccccc1OCC(=O)Nc1ccccc1C(=O)NC1CC1 | 44.7% | – | 29.1 µM [rising, single point]
29 | CCn1c(SCC(=O)NC2CCCC2)nnc1-c1ccco1 | 15.8% | – | –
30 | O=C(NC(NC(=O)c1c(F)cccc1F)c1ccc([N+](=O)[O-])cc1)c1c(F)cccc1F | 223% | – | 29.1 µM [rising, partial curve]
31 | Cc1ccccc1Nc1nc(-c2sc(NC(=O)c3ccccc3)nc2C)cs1 | 70% | – | –
32 | COc1cccc(OCc2cc(/C=N/n3cncn3)ccc2OC)c1 | -7.26% | 4.11 µM [rising, single point] | –
33 | C=CCn1c(=O)/c(=C/c2cc(OC)c(OC)c(OC)c2)s/c1=C(/C#N)c1nc2ccccc2n1C | 22% | 0.58 µM [rising, single point] | –
34 | COc1ccc(CNc2cc(C)ccc2C)c(OC)c1OC | – | 0.082 µM [rising, full curve, poor fit] | 0.058 µM [rising, full curve, poor fit]
35 | COc1cccc(-c2nnc(SCC(=O)Nc3cc(C)on3)n2C)c1 | – | 6.51 µM [rising, single point] | 6.51 µM [rising, single point]
36 | O=C(NNC(=O)c1ccccc1[N+](=O)[O-])Nc1ccccc1C(F)(F)F | 53.2% | 18.4 µM [rising, single point] | 29.1 µM [rising, single point]
37 | COc1ccc(CCN(C)C(=O)Cn2c(=O)oc3ccccc32)cc1OC | 20% | – | –
38 | c1ccc2c(c1)nc(N1CCOCC1)c1c3ccccc3[nH]c21 | -3.94% | 0.326 µM [rising, partial curve] | –
